# Results reported in the supplement of paper PMC10849652.
# Sequences of proteins named here, by UniProt entry; tags and fusion partners are left off. A change or cut given only in a name is not applied to a line headed by its entry.
# UniProt P09105: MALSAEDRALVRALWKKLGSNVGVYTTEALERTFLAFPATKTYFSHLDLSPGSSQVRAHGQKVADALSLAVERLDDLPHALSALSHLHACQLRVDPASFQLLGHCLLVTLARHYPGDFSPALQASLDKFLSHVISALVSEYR
# UniProt Q9Y3E1: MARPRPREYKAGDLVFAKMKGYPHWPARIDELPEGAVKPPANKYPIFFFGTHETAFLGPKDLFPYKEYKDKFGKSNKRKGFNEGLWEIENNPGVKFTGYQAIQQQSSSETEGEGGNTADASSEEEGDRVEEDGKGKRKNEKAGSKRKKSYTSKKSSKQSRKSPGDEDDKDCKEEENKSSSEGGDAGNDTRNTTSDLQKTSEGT
# UniProt Q9UBN7: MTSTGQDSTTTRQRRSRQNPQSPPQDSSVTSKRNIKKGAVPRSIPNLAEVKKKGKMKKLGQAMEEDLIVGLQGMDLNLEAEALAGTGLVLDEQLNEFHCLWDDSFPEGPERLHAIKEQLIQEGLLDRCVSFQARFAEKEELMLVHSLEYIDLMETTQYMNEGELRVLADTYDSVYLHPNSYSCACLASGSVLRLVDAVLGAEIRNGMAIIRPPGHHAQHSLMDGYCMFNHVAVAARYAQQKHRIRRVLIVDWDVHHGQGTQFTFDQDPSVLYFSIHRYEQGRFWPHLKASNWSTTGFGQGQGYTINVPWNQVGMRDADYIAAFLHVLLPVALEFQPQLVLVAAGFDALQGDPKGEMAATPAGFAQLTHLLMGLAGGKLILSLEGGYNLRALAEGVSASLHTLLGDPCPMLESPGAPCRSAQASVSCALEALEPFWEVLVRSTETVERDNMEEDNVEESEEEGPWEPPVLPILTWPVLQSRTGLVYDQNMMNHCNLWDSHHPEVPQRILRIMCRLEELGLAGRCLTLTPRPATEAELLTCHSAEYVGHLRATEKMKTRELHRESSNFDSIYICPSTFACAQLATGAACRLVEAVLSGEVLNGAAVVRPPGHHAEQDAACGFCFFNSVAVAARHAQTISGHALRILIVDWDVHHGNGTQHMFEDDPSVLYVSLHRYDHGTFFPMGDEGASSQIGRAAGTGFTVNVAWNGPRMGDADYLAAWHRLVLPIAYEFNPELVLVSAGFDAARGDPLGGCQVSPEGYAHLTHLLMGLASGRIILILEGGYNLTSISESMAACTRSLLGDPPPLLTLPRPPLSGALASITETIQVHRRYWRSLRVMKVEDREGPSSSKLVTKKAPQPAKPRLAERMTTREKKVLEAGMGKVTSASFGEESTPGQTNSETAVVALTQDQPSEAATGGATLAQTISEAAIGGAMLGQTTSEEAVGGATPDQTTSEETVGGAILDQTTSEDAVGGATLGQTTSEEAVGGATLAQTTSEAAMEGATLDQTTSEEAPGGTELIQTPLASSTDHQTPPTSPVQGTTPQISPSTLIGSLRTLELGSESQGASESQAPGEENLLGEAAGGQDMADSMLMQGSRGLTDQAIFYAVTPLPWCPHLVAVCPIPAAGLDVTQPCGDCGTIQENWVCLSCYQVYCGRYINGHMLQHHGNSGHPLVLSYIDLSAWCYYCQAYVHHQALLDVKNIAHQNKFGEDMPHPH
# UniProt P16401, whole entry, looked up: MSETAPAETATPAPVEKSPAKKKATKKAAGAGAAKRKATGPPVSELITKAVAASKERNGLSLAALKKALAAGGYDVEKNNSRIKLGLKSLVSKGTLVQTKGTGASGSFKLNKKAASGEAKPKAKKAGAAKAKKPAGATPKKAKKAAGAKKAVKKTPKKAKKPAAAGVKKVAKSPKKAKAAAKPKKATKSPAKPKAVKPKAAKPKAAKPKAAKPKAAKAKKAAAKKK
# UniProt Q8N4P3, whole entry, looked up: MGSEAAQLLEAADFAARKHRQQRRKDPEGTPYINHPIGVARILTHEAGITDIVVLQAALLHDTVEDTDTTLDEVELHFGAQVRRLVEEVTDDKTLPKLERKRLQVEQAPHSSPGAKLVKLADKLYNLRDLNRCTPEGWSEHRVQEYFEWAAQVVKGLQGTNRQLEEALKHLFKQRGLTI
# UniProt P51858: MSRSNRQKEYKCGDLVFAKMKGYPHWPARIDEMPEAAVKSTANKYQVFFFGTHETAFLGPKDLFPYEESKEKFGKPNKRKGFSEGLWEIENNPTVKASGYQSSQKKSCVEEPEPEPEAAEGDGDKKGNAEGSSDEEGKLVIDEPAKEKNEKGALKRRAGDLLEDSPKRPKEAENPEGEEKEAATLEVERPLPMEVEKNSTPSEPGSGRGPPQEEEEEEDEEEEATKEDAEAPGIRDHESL
# UniProt Q4G148: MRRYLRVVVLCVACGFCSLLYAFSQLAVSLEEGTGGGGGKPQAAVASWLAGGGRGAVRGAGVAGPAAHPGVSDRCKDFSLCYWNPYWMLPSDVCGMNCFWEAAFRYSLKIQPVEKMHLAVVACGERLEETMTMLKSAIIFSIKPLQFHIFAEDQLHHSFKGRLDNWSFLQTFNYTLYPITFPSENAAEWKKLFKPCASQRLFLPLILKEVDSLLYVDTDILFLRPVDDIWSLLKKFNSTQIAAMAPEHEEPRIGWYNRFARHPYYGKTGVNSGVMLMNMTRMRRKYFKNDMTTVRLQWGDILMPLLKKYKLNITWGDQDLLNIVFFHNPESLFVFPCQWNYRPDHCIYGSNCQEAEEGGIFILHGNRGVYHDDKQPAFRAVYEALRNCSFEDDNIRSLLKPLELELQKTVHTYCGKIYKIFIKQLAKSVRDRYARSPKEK
# UniProt Q9BQ67, whole entry, looked up: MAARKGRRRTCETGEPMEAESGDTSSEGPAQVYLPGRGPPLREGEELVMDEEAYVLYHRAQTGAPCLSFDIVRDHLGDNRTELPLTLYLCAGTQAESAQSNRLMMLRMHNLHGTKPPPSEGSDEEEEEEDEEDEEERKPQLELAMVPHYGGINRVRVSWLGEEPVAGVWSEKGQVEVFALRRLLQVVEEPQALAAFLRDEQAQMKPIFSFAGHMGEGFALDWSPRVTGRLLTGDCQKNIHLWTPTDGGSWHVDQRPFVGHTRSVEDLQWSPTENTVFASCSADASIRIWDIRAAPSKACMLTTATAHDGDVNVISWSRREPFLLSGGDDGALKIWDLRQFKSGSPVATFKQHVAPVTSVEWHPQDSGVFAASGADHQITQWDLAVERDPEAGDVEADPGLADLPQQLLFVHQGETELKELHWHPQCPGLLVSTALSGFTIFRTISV
# UniProt Q9H0R4: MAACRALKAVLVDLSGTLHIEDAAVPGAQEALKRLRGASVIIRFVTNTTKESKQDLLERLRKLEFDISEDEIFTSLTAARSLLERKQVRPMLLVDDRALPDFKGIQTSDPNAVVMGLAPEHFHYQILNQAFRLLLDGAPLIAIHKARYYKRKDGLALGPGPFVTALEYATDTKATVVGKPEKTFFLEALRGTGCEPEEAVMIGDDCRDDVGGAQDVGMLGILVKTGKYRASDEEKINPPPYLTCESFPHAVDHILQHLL
# UniProt Q13888: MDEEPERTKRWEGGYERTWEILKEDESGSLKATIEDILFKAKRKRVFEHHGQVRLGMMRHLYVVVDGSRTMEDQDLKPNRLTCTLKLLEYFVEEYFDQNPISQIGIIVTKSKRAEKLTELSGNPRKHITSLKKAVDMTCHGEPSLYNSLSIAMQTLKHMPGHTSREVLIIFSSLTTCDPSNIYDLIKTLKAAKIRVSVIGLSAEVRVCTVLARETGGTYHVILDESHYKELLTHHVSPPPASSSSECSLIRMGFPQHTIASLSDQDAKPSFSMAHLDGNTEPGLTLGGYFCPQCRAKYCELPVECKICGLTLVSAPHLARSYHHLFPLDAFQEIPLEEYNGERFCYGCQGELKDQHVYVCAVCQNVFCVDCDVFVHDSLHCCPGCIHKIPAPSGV
# UniProt P35269, whole entry, looked up: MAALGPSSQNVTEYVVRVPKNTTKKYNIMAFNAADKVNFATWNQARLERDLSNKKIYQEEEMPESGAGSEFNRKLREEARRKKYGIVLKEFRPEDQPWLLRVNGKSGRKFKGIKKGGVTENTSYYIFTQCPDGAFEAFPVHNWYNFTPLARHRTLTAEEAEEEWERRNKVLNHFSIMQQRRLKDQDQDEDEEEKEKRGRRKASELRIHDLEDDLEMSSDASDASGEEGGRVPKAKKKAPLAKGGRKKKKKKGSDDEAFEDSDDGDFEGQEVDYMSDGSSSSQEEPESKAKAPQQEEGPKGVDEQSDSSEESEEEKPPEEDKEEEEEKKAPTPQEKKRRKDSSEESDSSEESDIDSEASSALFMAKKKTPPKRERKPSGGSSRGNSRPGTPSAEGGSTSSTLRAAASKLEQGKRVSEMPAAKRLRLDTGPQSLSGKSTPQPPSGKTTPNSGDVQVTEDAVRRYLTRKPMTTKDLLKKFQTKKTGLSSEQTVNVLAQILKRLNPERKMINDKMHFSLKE
# UniProt O15379: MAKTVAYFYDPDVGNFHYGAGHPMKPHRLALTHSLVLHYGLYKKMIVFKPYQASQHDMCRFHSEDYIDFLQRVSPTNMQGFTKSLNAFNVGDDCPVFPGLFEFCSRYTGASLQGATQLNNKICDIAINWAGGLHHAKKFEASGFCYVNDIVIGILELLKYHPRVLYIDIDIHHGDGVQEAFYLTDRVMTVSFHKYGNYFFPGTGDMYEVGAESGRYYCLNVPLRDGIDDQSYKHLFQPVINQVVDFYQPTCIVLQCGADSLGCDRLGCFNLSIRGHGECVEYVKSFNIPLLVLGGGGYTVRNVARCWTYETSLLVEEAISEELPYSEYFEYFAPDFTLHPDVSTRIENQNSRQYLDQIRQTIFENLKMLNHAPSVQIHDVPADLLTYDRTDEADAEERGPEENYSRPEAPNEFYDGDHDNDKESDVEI
# UniProt P69891: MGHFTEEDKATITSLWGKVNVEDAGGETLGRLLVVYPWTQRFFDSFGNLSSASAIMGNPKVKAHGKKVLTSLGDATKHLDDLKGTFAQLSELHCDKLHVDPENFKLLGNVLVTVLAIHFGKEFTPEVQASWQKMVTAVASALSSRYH
# UniProt O75791: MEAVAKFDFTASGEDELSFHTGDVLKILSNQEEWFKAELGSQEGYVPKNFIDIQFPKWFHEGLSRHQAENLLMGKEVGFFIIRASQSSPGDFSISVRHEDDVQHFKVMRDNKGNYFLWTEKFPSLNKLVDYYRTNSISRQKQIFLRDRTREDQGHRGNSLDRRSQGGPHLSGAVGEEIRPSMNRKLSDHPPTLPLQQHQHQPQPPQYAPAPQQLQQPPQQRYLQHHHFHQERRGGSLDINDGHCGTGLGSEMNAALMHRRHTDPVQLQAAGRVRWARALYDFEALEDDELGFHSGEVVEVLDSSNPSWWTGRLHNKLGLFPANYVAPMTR
# UniProt Q9BT25: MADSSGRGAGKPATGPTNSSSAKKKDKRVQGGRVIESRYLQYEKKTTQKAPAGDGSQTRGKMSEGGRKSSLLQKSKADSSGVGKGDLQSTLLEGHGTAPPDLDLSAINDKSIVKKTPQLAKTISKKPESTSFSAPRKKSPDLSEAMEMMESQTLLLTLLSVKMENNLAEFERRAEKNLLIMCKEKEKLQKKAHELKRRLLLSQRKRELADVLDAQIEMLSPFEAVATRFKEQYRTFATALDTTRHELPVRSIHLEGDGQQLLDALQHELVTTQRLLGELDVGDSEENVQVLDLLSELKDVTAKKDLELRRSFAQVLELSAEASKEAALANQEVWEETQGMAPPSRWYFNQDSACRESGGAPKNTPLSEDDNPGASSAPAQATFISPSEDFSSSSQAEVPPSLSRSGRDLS
# UniProt Q8IYD1, whole entry, looked up: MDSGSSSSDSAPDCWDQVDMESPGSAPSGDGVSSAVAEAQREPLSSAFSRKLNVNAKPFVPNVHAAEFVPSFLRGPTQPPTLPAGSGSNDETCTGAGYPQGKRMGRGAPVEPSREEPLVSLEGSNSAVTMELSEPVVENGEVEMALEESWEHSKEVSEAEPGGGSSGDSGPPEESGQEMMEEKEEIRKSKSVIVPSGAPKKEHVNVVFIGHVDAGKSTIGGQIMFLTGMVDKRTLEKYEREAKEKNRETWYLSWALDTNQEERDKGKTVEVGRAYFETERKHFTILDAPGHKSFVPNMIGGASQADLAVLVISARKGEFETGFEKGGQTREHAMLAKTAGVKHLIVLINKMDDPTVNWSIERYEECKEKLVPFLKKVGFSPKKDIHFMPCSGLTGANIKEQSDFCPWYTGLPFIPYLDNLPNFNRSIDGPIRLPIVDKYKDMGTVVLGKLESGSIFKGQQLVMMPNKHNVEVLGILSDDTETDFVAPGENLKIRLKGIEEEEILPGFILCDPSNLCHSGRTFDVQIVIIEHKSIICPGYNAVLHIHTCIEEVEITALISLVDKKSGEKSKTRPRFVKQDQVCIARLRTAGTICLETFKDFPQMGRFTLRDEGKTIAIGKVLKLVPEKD
# UniProt Q7Z4H3: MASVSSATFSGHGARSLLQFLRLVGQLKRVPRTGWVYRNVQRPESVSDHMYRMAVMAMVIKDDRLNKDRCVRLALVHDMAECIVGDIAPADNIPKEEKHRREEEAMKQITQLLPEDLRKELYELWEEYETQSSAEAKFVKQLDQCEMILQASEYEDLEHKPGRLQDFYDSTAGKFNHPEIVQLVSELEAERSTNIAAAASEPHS
# The other results are listed elsewhere or left out.
# How the values were obtained:
# Experiment in all cases: log2 fold change, soluble protein after heating vs DMSO (PISA); higher = thermal stabilisation; K562 lysate, 10 uM; active = over 0.2 and 3.5 SD of the protein, either way, in both replicates (recomputed)
# alvocidib = compound: CN1CC[C@H](c2c(O)cc(O)c3c(=O)cc(-c4ccccc4Cl)oc23)[C@H](O)C1 [alvocidib]
# Summary of the method: (§1)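 Pellets of K562 cells were dounce-homogenised in PBS pH 7.4 with 1 mM MgCl2, and the crude extract was held at 1 mg/mL protein for a 30 min treatment with 10 μM compound. Aliquots were heated for 3 min over 48°C-58°C and pooled before NP-40 was added to 0.5% at 4°C. The supernatant from 21,000xg for 90 min was quantified by TMTpro 16plex LC-MS/MS with channel sums equalised. Values are reported from duplicates as log-two fold change in thermal stability relative to solvent controls.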
# Tubastatin A = compound: CN1CCc2c(c3ccccc3n2Cc2ccc(C(=O)NO)cc2)C1 [Tubastatin A]
# Summary of the method: as §1
# [1] = compound: CNC(=O)C1=CC=CC=C1NC2=NC(=NC=C2Cl)NC3=C(C=C(C=C3)N4CCOCC4)OC
# Summary of the method: as §1
# defactinib = compound: CNC(=O)c1ccc(Nc2ncc(C(F)(F)F)c(NCc3nccnc3N(C)S(C)(=O)=O)n2)cc1 [defactinib]
# Summary of the method: as §1
# [2] = compound: CNc1nc(-c2ccc3c(N)n[nH]c3c2)cc(N2C[C@@H](C(=O)NC3CCCCC3)CC[C@H]2C)n1
# Summary of the method: as §1
# encorafenib = compound: COC(=O)N[C@@H](C)CNc1nccc(-c2cn(C(C)C)nc2-c2cc(Cl)cc(NS(C)(=O)=O)c2F)n1 [encorafenib]
# Summary of the method: as §1
# [3] = compound: COC(=O)[C@H](CCSC)NC(=O)C1=C(C=C(C=C1)NC[C@H](CS)N)C2=CC=CC=C2
# Summary of the method: as §1
# alisertib = compound: COc1cc(Nc2ncc3c(n2)-c2ccc(Cl)cc2C(c2c(F)cccc2OC)=NC3)ccc1C(=O)O [alisertib]
# Summary of the method: as §1
# [4] = compound: COc1cc2nc(-c3cc(F)ccc3O)nc(N[C@@H]3CNC[C@H]3C(C)(C)O)c2cc1OC
# Summary of the method: as §1
# gefitinib = compound: COc1cc2ncnc(Nc3ccc(F)c(Cl)c3)c2cc1OCCCN1CCOCC1 [gefitinib]
# Summary of the method: as §1
Target,log2 fold change (alvocidib),log2 fold change (Tubastatin A),log2 fold change [1],log2 fold change (defactinib),log2 fold change [2],log2 fold change (encorafenib),log2 fold change [3],log2 fold change (alisertib),log2 fold change [4],log2 fold change (gefitinib)
GRK2 (UniProt P25098),inactive: 0.001,inactive: -0.08,inactive: 0.068,inactive: 0.106,inactive: 0.044,inactive: 0.001,inactive: 0.086,inactive: -0.042,inactive: 0.066,inactive: -0.041
HBQ1 (UniProt P09105),inactive: 0.03,inactive: 0.063,inactive: 0.069,inactive: 0.123,inactive: -0.039,inactive: 0.034,inactive: -0.027,inactive: 0.012,inactive: -0.035,inactive: -0.217
H1FX (UniProt Q92522),inactive: 0.005,inactive: 0.015,inactive: -0.007,inactive: 0.002,inactive: -0.084,inactive: 0.028,inactive: 0.041,inactive: 0.016,inactive: -0.017,inactive: -0.004
HACE1 (UniProt Q8IYU2),inactive: -0.177,inactive: 0.006,inactive: -0.042,inactive: -0.06,inactive: 0.278,inactive: -0.057,inactive: 0.18,inactive: 0.061,inactive: 0.045,inactive: -0.152
HDGFL3 (UniProt Q9Y3E1),inactive: -0.041,inactive: 0.08,inactive: 0.013,inactive: 0.028,inactive: 0.005,inactive: -0.02,inactive: 0.04,inactive: 0.006,inactive: -0.011,inactive: -0.014
HDAC6 (UniProt Q9UBN7),inactive: -0.006,inactive: 0.11,inactive: -0.015,inactive: -0.003,inactive: -0.013,inactive: -0.017,inactive: 0.06,inactive: 0.013,inactive: 0.001,inactive: -0.012
H1-4 (UniProt P10412),inactive: -0.021,inactive: 0.006,inactive: 0.037,inactive: -0.016,inactive: 0.005,inactive: 0.025,inactive: -0.108,inactive: -0.017,inactive: 0.012,inactive: -0.075
H1-5 (UniProt P16401),inactive: 0.031,inactive: 0.076,inactive: -0.001,inactive: -0.025,inactive: 0.114,inactive: 0.019,inactive: -0.027,inactive: 0.027,inactive: 0.009,inactive: -0.023
HDDC3 (UniProt Q8N4P3),inactive: 0.008,inactive: 0.046,inactive: -0.025,inactive: -0.038,inactive: -0.13,inactive: 0.058,inactive: 0.043,inactive: 0.005,inactive: -0.014,inactive: -0.01
GTPBP3 isoform 2 (UniProt Q969Y2),inactive: 0.087,inactive: -0.084,inactive: -0.008,inactive: 0.006,inactive: 0.089,inactive: 0.124,inactive: 0.347,inactive: -0.038,inactive: -0.048,inactive: -0.014
HDGF (UniProt P51858),inactive: 0.033,inactive: 0.049,inactive: -0.012,inactive: -0.03,inactive: 0.01,inactive: -0.025,inactive: -0.021,inactive: 0.002,inactive: 0.013,inactive: -0.006
GXYLT1 (UniProt Q4G148),inactive: -0.029,inactive: 0.049,inactive: 0.007,inactive: 0.022,inactive: 0.121,inactive: -0.082,inactive: 0.148,inactive: -0.12,inactive: -0.045,inactive: 0.008
HAGH (UniProt Q16775),inactive: -0.049,inactive: 0.057,inactive: 0.021,inactive: 0.032,inactive: 0.094,inactive: -0.013,inactive: -0.023,inactive: 0.042,inactive: 0.045,inactive: 0.011
GRWD1 (UniProt Q9BQ67),inactive: 0.009,inactive: -0.026,inactive: 0.017,inactive: 0.028,inactive: -0.013,inactive: 0.008,inactive: 0.115,inactive: -0.005,inactive: 0.024,inactive: -0.001
HDHD2 (UniProt Q9H0R4),inactive: -0.021,inactive: 0.027,inactive: -0.019,inactive: -0.014,inactive: 0.001,inactive: 0.013,inactive: -0.032,inactive: -0.011,inactive: 0.012,inactive: -0.02
"HDLBP, A0A024R4E5",inactive: -0.004,inactive: -0.082,inactive: 0.01,inactive: 0.001,inactive: 0.004,inactive: 0.028,inactive: 0.073,inactive: -0.005,inactive: 0.003,inactive: 0.003
GTF2H2 (UniProt Q13888),inactive: -0.043,inactive: -0.065,inactive: 0.042,inactive: -0.001,inactive: 0.145,inactive: 0.04,inactive: -0.107,inactive: 0.041,inactive: -0.032,inactive: -0.015
GTF2F1 (UniProt P35269),inactive: -0.029,inactive: 0.068,inactive: 0.01,inactive: 0.003,inactive: 0.066,inactive: 0.003,inactive: -0.014,inactive: -0.011,inactive: 0,inactive: -0.015
HARS (UniProt P12081),inactive: 0,inactive: 0.001,inactive: -0.02,inactive: -0.02,inactive: -0.054,inactive: -0.03,active: 0.254,inactive: 0.003,inactive: 0.015,inactive: 0.007
HDAC3 (UniProt O15379),inactive: 0.005,inactive: -0.039,inactive: 0.013,inactive: -0.023,inactive: 0.069,inactive: 0.008,inactive: -0.057,inactive: 0.02,inactive: -0.015,inactive: 0.014
UniProt H0YHG0,inactive: -0.049,inactive: 0.06,inactive: 0.005,inactive: -0.039,inactive: 0.046,inactive: -0.01,inactive: -0.007,inactive: 0.013,inactive: 0.014,inactive: -0.009
HBG1 (UniProt P69891),inactive: 0.086,inactive: 0.056,inactive: 0.017,inactive: 0.091,inactive: 0.014,inactive: 0.007,inactive: -0.034,inactive: 0.022,inactive: -0.026,inactive: -0.119
GRAP2 (UniProt O75791),inactive: 0.023,inactive: -0.03,inactive: 0.016,inactive: 0.002,inactive: 0,inactive: -0.045,inactive: 0.033,inactive: -0.027,inactive: -0.003,inactive: 0.02
HAUS8 (UniProt Q9BT25),inactive: 0.067,inactive: -0.173,inactive: -0.012,inactive: -0.06,inactive: 0.064,inactive: 0.063,inactive: -0.004,inactive: -0.063,inactive: -0.075,inactive: -0.031
GTF2E1 (UniProt P29083),inactive: -0.042,inactive: 0.039,inactive: 0.03,inactive: 0.022,inactive: 0.029,inactive: 0.031,inactive: -0.016,inactive: 0.033,inactive: -0.008,inactive: 0.004
GSS (UniProt P48637),inactive: 0.002,inactive: 0.01,inactive: 0,inactive: 0.016,inactive: -0.007,inactive: 0.004,inactive: -0.019,inactive: -0.006,inactive: -0.009,inactive: 0.016
HAUS5 (UniProt O94927),inactive: 0.062,inactive: -0.146,inactive: 0.007,inactive: 0.026,inactive: 0.015,inactive: -0.006,inactive: 0.092,inactive: -0.01,inactive: 0.006,inactive: -0.007
GSPT2 (UniProt Q8IYD1),inactive: -0.046,inactive: -0.042,inactive: 0.037,inactive: 0.037,inactive: 0.028,inactive: 0,inactive: 0.026,inactive: 0.02,inactive: 0.009,inactive: -0.016
HDDC2 (UniProt Q7Z4H3),inactive: 0.005,inactive: 0.006,inactive: -0.019,inactive: 0.07,inactive: 0.017,inactive: -0.039,inactive: -0.002,inactive: -0.038,inactive: 0.002,inactive: -0.035
GTF2I (UniProt P78347),inactive: 0.05,inactive: -0.096,inactive: 0.012,inactive: 0.018,inactive: -0.035,inactive: 0.015,inactive: 0.14,inactive: 0.011,inactive: 0.004,inactive: -0.01

# Rewritten with bars between the fields: part of the list above
Target | log2 fold change (alvocidib) | log2 fold change (Tubastatin A) | log2 fold change [1] | log2 fold change (defactinib) | log2 fold change [2] | log2 fold change (encorafenib) | log2 fold change [3] | log2 fold change (alisertib) | log2 fold change [4] | log2 fold change (gefitinib)
HDGFL3 (UniProt Q9Y3E1) | inactive: -0.041 | inactive: 0.08 | inactive: 0.013 | inactive: 0.028 | inactive: 0.005 | inactive: -0.02 | inactive: 0.04 | inactive: 0.006 | inactive: -0.011 | inactive: -0.014
HDAC6 (UniProt Q9UBN7) | inactive: -0.006 | inactive: 0.11 | inactive: -0.015 | inactive: -0.003 | inactive: -0.013 | inactive: -0.017 | inactive: 0.06 | inactive: 0.013 | inactive: 0.001 | inactive: -0.012
H1-4 (UniProt P10412) | inactive: -0.021 | inactive: 0.006 | inactive: 0.037 | inactive: -0.016 | inactive: 0.005 | inactive: 0.025 | inactive: -0.108 | inactive: -0.017 | inactive: 0.012 | inactive: -0.075
H1-5 (UniProt P16401) | inactive: 0.031 | inactive: 0.076 | inactive: -0.001 | inactive: -0.025 | inactive: 0.114 | inactive: 0.019 | inactive: -0.027 | inactive: 0.027 | inactive: 0.009 | inactive: -0.023
HDDC3 (UniProt Q8N4P3) | inactive: 0.008 | inactive: 0.046 | inactive: -0.025 | inactive: -0.038 | inactive: -0.13 | inactive: 0.058 | inactive: 0.043 | inactive: 0.005 | inactive: -0.014 | inactive: -0.01
GTPBP3 isoform 2 (UniProt Q969Y2) | inactive: 0.087 | inactive: -0.084 | inactive: -0.008 | inactive: 0.006 | inactive: 0.089 | inactive: 0.124 | inactive: 0.347 | inactive: -0.038 | inactive: -0.048 | inactive: -0.014
